Measured data: PubChem BioAssay AID1224830 (NIAID, 2016)
Aim: 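Host factors that control LPS-induced TNF expression in human macrophages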 (primary screen). Cell system: human THP-1 monocytic leukaemia cells, TNF dual-luciferase reporter clone, PMA-differentiated to macrophage-like cells. Reagents: siRNA pool against human genes, 50 nM. Duration: LPS for 4 h, given about 3 days after siRNA transfection. Treatment: bacterial LPS (TLR4 ligand), 10 ng/ml. Detection: 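Ratio of firefly to renilla light, scaled to the plate median and expressed as a robust z-score per replicate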. Scale: TNF reporter robust z-score: higher = stronger TNF reporter response to LPS. Rule for the call: 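Each well counts as active if its z-score is over 2.8 or under -1.5; controls are left without a call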.
In all, the deposit lists about 18,000 reagents; this is an unselected part. Over the whole deposit, about 2,900 (16%) were called active. 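Calls are made per well; low scores hint the gene aids the LPS response, high scores that it dampens it.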 Reagents against one gene are numbered here. Repeated entries: four replicate wells of each siRNA pool. Reagent sequences are not shown.

Target gene | reagent | TNF reporter robust z-score | outcome
ADAMTS19 (ADAM metallopeptidase with thrombospondin type 1 motif 19) | 1 | 1.9 | inactive
ADAMTS19 (ADAM metallopeptidase with thrombospondin type 1 motif 19) | 1 | 1.03 | inactive
ADAMTS19 (ADAM metallopeptidase with thrombospondin type 1 motif 19) | 1 | 1.26 | inactive
ADAMTS19 (ADAM metallopeptidase with thrombospondin type 1 motif 19) | 1 | 0.33 | inactive
PLEK (pleckstrin) | 1 | -0.15 | inactive
PLEK (pleckstrin) | 1 | 0.23 | inactive
PLEK (pleckstrin) | 1 | 0.77 | inactive
PLEK (pleckstrin) | 1 | -0.13 | inactive
CLEC18C (C-type lectin domain family 18 member C) | 1 | 1.63 | inactive
CLEC18C (C-type lectin domain family 18 member C) | 1 | 1.26 | inactive
CLEC18C (C-type lectin domain family 18 member C) | 1 | 0.07 | inactive
CLEC18C (C-type lectin domain family 18 member C) | 1 | 1.72 | inactive
HMGN2P46 | 1 | -0.07 | inactive
HMGN2P46 | 1 | 0.12 | inactive
HMGN2P46 | 1 | -0.35 | inactive
HMGN2P46 | 1 | -0.36 | inactive
NGB (neuroglobin) | 1 | 1.55 | inactive
NGB (neuroglobin) | 1 | 2.04 | inactive
NGB (neuroglobin) | 1 | 2.15 | inactive
NGB (neuroglobin) | 1 | 2.26 | inactive
ZFP3 (ZFP3 zinc finger protein) | 1 | 0.07 | inactive
ZFP3 (ZFP3 zinc finger protein) | 1 | -0.06 | inactive
ZFP3 (ZFP3 zinc finger protein) | 1 | -0.76 | inactive
ZFP3 (ZFP3 zinc finger protein) | 1 | -0.15 | inactive
IGDCC3 (immunoglobulin superfamily DCC subclass member 3) | 1 | -1.67 | active
IGDCC3 (immunoglobulin superfamily DCC subclass member 3) | 1 | -1.55 | active
IGDCC3 (immunoglobulin superfamily DCC subclass member 3) | 1 | -1.57 | active
IGDCC3 (immunoglobulin superfamily DCC subclass member 3) | 1 | -1.56 | active
PDE6C (phosphodiesterase 6C) | 1 | -0.41 | inactive
PDE6C (phosphodiesterase 6C) | 1 | 0.15 | inactive
PDE6C (phosphodiesterase 6C) | 1 | 0.01 | inactive
NTSR1 (neurotensin receptor 1) | 1 | -0.06 | inactive
NTSR1 (neurotensin receptor 1) | 1 | -0.16 | inactive
NTSR1 (neurotensin receptor 1) | 1 | 0.5 | inactive
NTSR1 (neurotensin receptor 1) | 1 | 0.84 | inactive
SDAD1 (SDA1 domain containing 1) | 1 | 1.09 | inactive
SDAD1 (SDA1 domain containing 1) | 1 | 0.52 | inactive
SDAD1 (SDA1 domain containing 1) | 1 | 1.21 | inactive
SDAD1 (SDA1 domain containing 1) | 1 | -0.02 | inactive
CHTF18 (chromosome transmission fidelity factor 18) | 1 | 0.97 | inactive
CHTF18 (chromosome transmission fidelity factor 18) | 1 | 0.65 | inactive
CHTF18 (chromosome transmission fidelity factor 18) | 1 | 1.82 | inactive
CHTF18 (chromosome transmission fidelity factor 18) | 1 | 0.23 | inactive
MAB21L4 (mab-21 like 4) | 1 | -0.44 | inactive
MAB21L4 (mab-21 like 4) | 1 | -0.17 | inactive
MAB21L4 (mab-21 like 4) | 1 | 0.03 | inactive
MAB21L4 (mab-21 like 4) | 1 | -0.38 | inactive
FOXL1 (forkhead box L1) | 1 | -0.63 | inactive
FOXL1 (forkhead box L1) | 1 | 0.03 | inactive
FOXL1 (forkhead box L1) | 1 | -0.79 | inactive
FOXL1 (forkhead box L1) | 1 | -0.2 | inactive
PTPN4 (protein tyrosine phosphatase non-receptor type 4) | 1 | 1.08 | inactive
PTPN4 (protein tyrosine phosphatase non-receptor type 4) | 1 | 0.44 | inactive
PTPN4 (protein tyrosine phosphatase non-receptor type 4) | 1 | -1.34 | inactive
PTPN4 (protein tyrosine phosphatase non-receptor type 4) | 1 | -1 | inactive
CYB561A3 (cytochrome b561 family member A3) | 1 | 0.09 | inactive
CYB561A3 (cytochrome b561 family member A3) | 1 | 0.46 | inactive
CYB561A3 (cytochrome b561 family member A3) | 1 | -0.15 | inactive
CYB561A3 (cytochrome b561 family member A3) | 1 | 0.08 | inactive
SLC35F6 | 1 | 0.95 | inactive
SLC35F6 | 1 | 1.27 | inactive
SLC35F6 | 1 | 0.04 | inactive
SLC35F6 | 1 | 0.36 | inactive
DYNLRB1 (dynein light chain roadblock-type 1) | 1 | 1.34 | inactive
DYNLRB1 (dynein light chain roadblock-type 1) | 1 | 2.17 | inactive
DYNLRB1 (dynein light chain roadblock-type 1) | 1 | 1.64 | inactive
DYNLRB1 (dynein light chain roadblock-type 1) | 1 | 1.75 | inactive
AP3S1 (adaptor related protein complex 3 subunit sigma 1) | 1 | -0.02 | inactive
AP3S1 (adaptor related protein complex 3 subunit sigma 1) | 1 | -0.19 | inactive
AP3S1 (adaptor related protein complex 3 subunit sigma 1) | 1 | 0.76 | inactive
AP3S1 (adaptor related protein complex 3 subunit sigma 1) | 1 | -0.1 | inactive
SHISA4 (shisa family member 4) | 1 | -1.17 | inactive
SHISA4 (shisa family member 4) | 1 | -1.19 | inactive
SHISA4 (shisa family member 4) | 1 | -0.86 | inactive
SHISA4 (shisa family member 4) | 1 | -1.25 | inactive
HSFY1 (heat shock transcription factor Y-linked 1) | 1 | 0.88 | inactive
HSFY1 (heat shock transcription factor Y-linked 1) | 1 | 1.36 | inactive
HSFY1 (heat shock transcription factor Y-linked 1) | 1 | 0.74 | inactive
HSFY1 (heat shock transcription factor Y-linked 1) | 1 | 0.4 | inactive
LINC01587 (long independently transcribed non-coding RNA 1587) | 1 | 0.84 | inactive
LINC01587 (long independently transcribed non-coding RNA 1587) | 1 | 0.82 | inactive
LINC01587 (long independently transcribed non-coding RNA 1587) | 1 | -0.59 | inactive
LINC01587 (long independently transcribed non-coding RNA 1587) | 1 | 0.96 | inactive
RAPH1 | 1 | 0.67 | inactive
RAPH1 | 1 | -0.75 | inactive
RAPH1 | 1 | -0.2 | inactive
RAPH1 | 1 | -0.79 | inactive
CD248 (CD248 molecule) | 1 | 1.85 | inactive
CD248 (CD248 molecule) | 1 | 1.9 | inactive
CD248 (CD248 molecule) | 1 | -0.88 | inactive
CD248 (CD248 molecule) | 1 | -0.13 | inactive
TBL1Y (transducin beta like 1 Y-linked) | 1 | -0.54 | inactive
TBL1Y (transducin beta like 1 Y-linked) | 1 | -0.22 | inactive
TBL1Y (transducin beta like 1 Y-linked) | 1 | -0.27 | inactive
TBL1Y (transducin beta like 1 Y-linked) | 1 | -0.85 | inactive
DOCK11 (dedicator of cytokinesis 11) | 1 | 0.17 | inactive
DOCK11 (dedicator of cytokinesis 11) | 1 | -0.46 | inactive
DOCK11 (dedicator of cytokinesis 11) | 1 | 0.12 | inactive
DOCK11 (dedicator of cytokinesis 11) | 1 | -0.4 | inactive
PTPN20 (protein tyrosine phosphatase non-receptor type 20) | 1 | -0.48 | inactive
PTPN20 (protein tyrosine phosphatase non-receptor type 20) | 1 | 0.93 | inactive
PTPN20 (protein tyrosine phosphatase non-receptor type 20) | 1 | 3.01 | active
PTPN20 (protein tyrosine phosphatase non-receptor type 20) | 1 | -0.62 | inactive
PTPN20 (protein tyrosine phosphatase non-receptor type 20) | 2 | 0.1 | inactive
PTPN20 (protein tyrosine phosphatase non-receptor type 20) | 2 | 0.25 | inactive
PTPN20 (protein tyrosine phosphatase non-receptor type 20) | 2 | -1.12 | inactive
PTPN20 (protein tyrosine phosphatase non-receptor type 20) | 2 | -0.1 | inactive
GAGE2C (G antigen 2C) | 1 | -0.46 | inactive
GAGE2C (G antigen 2C) | 1 | 0.67 | inactive
GAGE2C (G antigen 2C) | 1 | -0.34 | inactive
GAGE2C (G antigen 2C) | 1 | 1.02 | inactive
